PubChem BioAssay AID720710 – VTT Finland, 2013
Assay: 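Genes whose loss lowers DNA synthesis when an oncogene drives replication stress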 (primary screen). Cells: human U-2 OS bone cancer cells, parental and a cyclin E (CCNE1) overexpressing line. Knock-down reagent: single siRNA against human genes, 1 µM siRNA in the printed spot mix. Timing: 67 h. Conditions: half the arrays: hydroxyurea 2 mM for 16 h, then 3 h recovery; other arrays untreated. Detection: 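DNA synthesis measured as imaged EdU uptake per nucleus (DAPI) at 67 h, normalised to subgrid median and given as z-score versus non-targeting controls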. Reading the numbers: EdU z-score, cyclin E line, hydroxyurea: higher = more DNA synthesis than non-targeting controls.
In all, the deposit lists about 1,380 reagents; shown is an unselected part. 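One array per condition without replicates; hydroxyurea arrays received 2 mM for 16 h plus 3 h recovery.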 Reagents against one gene are numbered here. Not all columns of the deposit are shown.

EdU z-score, cyclin E line, hydroxyurea, by gene and reagent
PRPF19: #1 -0.0949; #2 0.407
MRPS35: #1 -0.472; #2 0.198
KAT7: #1 -2.84; #2 0
SOX1: #1 -1.15; #2 -0.913
H2AC8: #1 -1.91; #2 0.799
RNF25: #1 -1.91; #2 -1.31
NUDT1: #1 -0.765; #2 -0.234
CDC7: #1 -2.13; #2 -1.71
RNF5: #1 0.388; #2 0.644
MSH2: #1 -0.391; #2 0.83
ESCO1: #1 -0.937; #2 1.87
MAX: #1 -0.684; #2 -0.206
ATRX: #1 -2.08; #2 0.0366
HMGA1: #1 -1.45; #2 -0.178
ZNRF1: #1 0.00383; #2 0.85
LOC731751: #1 0.0952; #2 1.9

A few values from the entries so far.
H2AC8 #1, EdU z-score, cyclin E line, hydroxyurea: -1.91
Result of RNF5 #2 under “EdU z-score, cyclin E line, hydroxyurea”: 0.644
Value of MAX #2 under “EdU z-score, cyclin E line, hydroxyurea”: -0.206
For “EdU z-score, cyclin E line, hydroxyurea”, LOC731751 #2 reads 1.9

The listing continues:
EdU z-score, cyclin E line, hydroxyurea, by gene and reagent
LOC730429: #1 -2.9; #2 -1.29
SUPT16H: #1 -0.132; #2 0.566
FBH1: #1 -0.932; #2 0.567
KCTD13: #1 -0.253; #2 0.647
SETX: #1 0.517; #2 2
XRCC5: #1 -1.15; #2 -0.228
APEX2: #1 -2.41; #2 -0.899
SMARCA5: #1 -2.26; #2 -0.157
SMC5: #1 -0.433; #2 -0.427
